Measurements as given in patent US20190038714A1, “ANTI-INFLAMMATORY COMPOSITION COMPRISING CLAVASPIRIN PEPTIDE ANALOGUE AS EFFECTIVE INGREDIENT” (INDUSTRY-ACADEMIC COOPERATION FOUNDATION, CHOSUN UNIVERSITY, priority 2015, published 2019).
Part of at least one peptide drawing is inferred or uncertain, most often the ends. Ends that are not written are not given here.

Key:
Assay type in all cases: in vivo
TLR-2, TNF-α, IL-1β = experiment: Immunohistochemical staining of hairless mouse skin with induced inflammation; details: S. aureus MRSA 0027, peptide 100 μg/ml or 200 μg/ml on skin
[1] = system: TLR-2, NF-kB, TNF-α, IL-1β, cathelicidin; experiment: Western blot analysis of hairless mouse skin with induced inflammation; details: S. aureus MRSA 0027, peptide at different concentrations
[2] = system: skin of a hairless mouse with induced inflammation; experiment: H&E tissue staining of hairless mouse skin with inflammation induced by S. aureus MRSA 0027; details: peptide 100 μg/ml or 200 μg/ml on skin

FLRFIGSVKHGKGHLVHHIGVAL-NH2 [CSP-4]
expression of the inflammation-related proteins (TNF-α, IL-1β, TLR-2), immunohistochemical (TLR-2, TNF-α, IL-1β): hardly induced as the peptide concentration increases
inflammation-related proteins (TLR-2, NF-kB, TNF-α, IL-1β, cathelicidin), Western blot [1]: reduced according to an increase in treatment concentration
inflammation response in skin tissues (H&E staining) [2]: decreasing inflammation response as the peptide concentration increases
